Common to all, as to assay: co-IP
Assay [1] concerns the target T1, GFP-Auxilin R927G (human) (UniProt O75061).
T1 sequence: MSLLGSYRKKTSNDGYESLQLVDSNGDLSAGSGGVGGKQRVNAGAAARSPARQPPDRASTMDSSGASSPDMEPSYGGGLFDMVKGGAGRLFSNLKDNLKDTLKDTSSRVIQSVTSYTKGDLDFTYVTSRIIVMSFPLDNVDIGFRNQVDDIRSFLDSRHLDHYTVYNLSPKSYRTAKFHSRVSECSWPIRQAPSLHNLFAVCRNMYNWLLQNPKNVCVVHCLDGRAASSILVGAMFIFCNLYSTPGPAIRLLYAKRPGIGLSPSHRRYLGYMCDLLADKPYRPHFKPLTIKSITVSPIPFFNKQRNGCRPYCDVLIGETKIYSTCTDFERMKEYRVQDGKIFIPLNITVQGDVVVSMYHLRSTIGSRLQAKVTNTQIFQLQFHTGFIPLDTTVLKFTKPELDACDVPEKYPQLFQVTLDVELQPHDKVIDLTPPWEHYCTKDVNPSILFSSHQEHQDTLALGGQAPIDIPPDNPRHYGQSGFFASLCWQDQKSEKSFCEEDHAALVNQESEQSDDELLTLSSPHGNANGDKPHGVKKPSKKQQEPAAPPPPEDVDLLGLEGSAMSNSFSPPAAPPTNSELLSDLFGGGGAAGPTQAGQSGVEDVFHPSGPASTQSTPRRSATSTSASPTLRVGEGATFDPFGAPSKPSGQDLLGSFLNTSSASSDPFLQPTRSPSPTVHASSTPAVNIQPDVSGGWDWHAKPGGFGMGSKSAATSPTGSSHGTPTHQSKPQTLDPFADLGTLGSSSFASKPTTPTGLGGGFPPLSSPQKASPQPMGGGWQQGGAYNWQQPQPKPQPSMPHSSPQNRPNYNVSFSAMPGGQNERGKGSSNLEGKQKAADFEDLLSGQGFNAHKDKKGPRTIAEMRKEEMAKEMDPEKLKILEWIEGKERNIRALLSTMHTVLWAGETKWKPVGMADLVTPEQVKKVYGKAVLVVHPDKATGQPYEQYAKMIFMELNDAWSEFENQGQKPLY

Sequences of proteins named here, by UniProt entry; tags and fusion partners are left off.
UniProt Q9UJY4: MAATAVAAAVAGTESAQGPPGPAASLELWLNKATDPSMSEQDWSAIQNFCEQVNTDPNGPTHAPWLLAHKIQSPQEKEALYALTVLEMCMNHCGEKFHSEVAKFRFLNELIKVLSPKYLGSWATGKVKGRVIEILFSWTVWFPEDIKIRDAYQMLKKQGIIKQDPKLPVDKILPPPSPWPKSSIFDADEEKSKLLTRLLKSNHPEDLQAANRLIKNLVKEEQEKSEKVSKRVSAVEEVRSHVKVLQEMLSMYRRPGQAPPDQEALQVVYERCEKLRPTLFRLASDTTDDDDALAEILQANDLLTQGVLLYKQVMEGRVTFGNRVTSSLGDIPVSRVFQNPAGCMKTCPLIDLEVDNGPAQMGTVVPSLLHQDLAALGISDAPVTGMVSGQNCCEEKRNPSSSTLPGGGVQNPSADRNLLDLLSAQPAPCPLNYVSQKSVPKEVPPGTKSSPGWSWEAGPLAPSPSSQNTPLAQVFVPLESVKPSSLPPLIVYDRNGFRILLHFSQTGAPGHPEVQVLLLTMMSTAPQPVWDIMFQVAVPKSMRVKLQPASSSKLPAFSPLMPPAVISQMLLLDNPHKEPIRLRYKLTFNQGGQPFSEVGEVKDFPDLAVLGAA
UniProt Q00610: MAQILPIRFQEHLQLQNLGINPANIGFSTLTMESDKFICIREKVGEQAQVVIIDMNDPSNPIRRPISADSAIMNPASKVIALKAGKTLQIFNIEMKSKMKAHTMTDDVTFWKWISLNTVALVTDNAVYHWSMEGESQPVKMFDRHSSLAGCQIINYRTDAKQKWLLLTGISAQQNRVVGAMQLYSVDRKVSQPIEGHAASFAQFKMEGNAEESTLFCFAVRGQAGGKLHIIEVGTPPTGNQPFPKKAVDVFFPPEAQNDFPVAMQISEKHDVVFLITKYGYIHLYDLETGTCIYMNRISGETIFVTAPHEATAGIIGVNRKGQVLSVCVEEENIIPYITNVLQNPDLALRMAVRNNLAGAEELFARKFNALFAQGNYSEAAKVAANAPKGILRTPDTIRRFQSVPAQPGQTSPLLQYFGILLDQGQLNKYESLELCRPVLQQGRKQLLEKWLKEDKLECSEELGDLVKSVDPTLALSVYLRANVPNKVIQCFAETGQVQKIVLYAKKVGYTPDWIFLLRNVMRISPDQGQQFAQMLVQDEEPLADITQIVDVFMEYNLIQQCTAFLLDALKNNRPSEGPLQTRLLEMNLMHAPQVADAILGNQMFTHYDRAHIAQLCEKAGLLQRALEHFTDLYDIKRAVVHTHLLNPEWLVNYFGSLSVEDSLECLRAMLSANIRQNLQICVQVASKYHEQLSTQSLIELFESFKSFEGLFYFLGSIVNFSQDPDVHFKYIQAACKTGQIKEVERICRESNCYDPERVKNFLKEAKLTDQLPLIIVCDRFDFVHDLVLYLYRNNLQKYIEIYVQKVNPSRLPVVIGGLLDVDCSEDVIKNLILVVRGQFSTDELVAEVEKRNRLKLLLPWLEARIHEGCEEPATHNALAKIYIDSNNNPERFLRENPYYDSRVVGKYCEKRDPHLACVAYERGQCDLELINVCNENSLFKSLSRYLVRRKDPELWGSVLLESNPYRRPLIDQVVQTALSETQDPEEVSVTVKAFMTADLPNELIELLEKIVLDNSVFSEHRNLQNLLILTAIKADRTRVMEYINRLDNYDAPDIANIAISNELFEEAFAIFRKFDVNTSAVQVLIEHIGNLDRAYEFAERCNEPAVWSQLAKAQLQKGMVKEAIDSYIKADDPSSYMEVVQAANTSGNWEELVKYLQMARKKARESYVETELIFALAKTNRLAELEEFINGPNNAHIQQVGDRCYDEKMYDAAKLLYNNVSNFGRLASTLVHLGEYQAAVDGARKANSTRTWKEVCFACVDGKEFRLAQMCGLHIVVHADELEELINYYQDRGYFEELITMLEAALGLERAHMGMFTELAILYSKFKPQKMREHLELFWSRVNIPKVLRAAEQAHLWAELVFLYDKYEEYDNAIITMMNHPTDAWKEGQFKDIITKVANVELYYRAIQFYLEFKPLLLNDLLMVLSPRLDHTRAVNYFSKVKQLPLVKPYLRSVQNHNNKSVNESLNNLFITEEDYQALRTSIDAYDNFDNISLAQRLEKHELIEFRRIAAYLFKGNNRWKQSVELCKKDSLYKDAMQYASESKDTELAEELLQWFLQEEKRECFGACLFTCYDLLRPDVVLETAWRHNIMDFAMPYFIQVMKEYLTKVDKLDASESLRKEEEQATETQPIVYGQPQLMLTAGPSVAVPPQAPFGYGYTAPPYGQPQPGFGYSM

The target of assay [2] is T2, GFP-Auxilin (wild type, human) (human) (UniProt O75061).
T2 sequence: T1 sequence with G927R

Assay [3] concerns the target T3, GFP-Auxilin Q791X (human) (UniProt O75061).
T3 sequence: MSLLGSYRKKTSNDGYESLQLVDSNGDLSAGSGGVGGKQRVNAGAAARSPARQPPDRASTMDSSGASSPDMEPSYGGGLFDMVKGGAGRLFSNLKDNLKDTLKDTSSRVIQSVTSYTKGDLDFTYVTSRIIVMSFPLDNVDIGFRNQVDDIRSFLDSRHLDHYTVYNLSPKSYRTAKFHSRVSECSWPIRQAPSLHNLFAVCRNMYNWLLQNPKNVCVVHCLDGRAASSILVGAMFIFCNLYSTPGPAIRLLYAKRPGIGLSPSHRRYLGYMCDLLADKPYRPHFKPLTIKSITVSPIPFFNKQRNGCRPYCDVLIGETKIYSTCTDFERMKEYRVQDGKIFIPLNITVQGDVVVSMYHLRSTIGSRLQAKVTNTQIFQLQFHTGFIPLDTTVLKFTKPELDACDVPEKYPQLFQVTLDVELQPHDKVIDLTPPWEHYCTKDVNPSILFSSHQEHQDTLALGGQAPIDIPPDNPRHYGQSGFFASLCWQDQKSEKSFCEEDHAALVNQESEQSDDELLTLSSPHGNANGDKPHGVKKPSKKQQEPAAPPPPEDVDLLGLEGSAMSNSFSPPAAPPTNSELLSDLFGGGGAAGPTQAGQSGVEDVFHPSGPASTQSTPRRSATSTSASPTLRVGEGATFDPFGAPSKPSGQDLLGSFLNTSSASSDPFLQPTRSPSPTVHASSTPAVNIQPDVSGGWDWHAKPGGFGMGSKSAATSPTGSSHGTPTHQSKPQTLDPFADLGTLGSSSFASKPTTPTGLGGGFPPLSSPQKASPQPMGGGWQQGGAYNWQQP

Assay [4] addresses T4, GFP-Auxilin Q846X (human) (UniProt O75061).
T4 sequence: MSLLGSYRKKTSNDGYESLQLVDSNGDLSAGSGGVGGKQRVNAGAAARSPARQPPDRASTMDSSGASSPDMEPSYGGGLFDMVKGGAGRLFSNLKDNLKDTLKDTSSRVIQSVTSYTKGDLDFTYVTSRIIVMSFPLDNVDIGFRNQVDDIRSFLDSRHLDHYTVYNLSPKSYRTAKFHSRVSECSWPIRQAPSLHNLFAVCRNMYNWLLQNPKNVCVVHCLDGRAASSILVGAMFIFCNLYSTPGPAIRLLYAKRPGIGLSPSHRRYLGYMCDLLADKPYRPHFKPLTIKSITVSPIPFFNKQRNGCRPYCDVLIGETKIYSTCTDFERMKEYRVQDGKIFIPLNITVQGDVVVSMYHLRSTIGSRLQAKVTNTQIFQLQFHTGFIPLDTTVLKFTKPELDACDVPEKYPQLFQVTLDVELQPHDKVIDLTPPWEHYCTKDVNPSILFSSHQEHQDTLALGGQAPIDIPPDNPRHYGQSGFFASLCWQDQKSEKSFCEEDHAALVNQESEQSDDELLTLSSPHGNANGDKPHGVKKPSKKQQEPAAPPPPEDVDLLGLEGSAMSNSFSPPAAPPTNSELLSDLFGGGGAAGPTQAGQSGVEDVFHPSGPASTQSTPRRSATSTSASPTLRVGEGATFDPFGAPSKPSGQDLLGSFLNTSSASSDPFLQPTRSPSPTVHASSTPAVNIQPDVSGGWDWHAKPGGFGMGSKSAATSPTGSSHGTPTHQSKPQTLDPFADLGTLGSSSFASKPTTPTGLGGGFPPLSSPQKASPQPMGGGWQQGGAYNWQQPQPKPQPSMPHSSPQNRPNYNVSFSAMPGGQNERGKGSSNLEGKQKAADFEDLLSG

In another assay the target is T5, GFP-GAK (UniProt O14976).
T5 sequence: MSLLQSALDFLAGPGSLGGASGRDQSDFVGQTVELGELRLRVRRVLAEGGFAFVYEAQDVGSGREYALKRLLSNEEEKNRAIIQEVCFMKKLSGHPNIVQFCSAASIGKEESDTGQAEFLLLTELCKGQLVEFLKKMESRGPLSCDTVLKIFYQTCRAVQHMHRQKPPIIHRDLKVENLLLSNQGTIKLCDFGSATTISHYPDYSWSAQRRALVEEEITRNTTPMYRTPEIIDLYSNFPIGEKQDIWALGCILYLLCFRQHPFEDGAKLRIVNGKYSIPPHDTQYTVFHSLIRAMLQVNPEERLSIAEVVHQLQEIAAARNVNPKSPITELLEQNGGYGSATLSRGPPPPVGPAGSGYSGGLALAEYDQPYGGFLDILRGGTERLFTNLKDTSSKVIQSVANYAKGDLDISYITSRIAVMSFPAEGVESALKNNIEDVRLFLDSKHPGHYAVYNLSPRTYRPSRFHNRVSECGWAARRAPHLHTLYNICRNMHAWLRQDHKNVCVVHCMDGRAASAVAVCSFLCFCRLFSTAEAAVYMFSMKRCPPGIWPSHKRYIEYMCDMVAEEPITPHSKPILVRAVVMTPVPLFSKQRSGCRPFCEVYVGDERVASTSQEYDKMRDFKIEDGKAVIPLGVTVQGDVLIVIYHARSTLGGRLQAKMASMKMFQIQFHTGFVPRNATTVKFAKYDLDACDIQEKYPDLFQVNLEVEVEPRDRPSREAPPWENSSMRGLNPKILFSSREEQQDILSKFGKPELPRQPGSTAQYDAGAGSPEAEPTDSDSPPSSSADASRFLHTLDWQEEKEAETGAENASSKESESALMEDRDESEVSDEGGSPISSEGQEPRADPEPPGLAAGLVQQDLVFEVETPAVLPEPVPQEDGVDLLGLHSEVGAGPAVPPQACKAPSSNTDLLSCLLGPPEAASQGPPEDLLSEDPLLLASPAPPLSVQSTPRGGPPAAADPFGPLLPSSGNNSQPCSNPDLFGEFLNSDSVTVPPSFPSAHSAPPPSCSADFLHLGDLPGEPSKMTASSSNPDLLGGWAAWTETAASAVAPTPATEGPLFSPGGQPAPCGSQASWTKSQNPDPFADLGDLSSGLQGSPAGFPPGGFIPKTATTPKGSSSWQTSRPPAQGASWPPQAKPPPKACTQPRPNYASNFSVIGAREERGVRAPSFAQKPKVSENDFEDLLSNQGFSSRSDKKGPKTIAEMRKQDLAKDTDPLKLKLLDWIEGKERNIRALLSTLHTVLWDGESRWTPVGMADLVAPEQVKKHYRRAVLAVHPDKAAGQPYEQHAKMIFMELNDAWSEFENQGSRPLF

Changes are numbered by the printed parent chain. These are yes or no findings as the source states them, for the method shown. Binding seen in cells or lysates may run through a third protein. Some entries that bind do so weakly or less than the wild type. Sequences can lack the tags named with a protein.

Consider “GGA2, endogenous in HEK293FT (from UniProt Q9UJY4 1-613)”, for which the binding result in assay [1] is “binds”; in assay [2], “binds”; in assay [3] it was “binds”; in assay [4] it was “binds”; in the assay with GFP-GAK, “no binding”.
Regarding “clathrin heavy chain (CHC), endogenous in HEK293FT (from UniProt Q00610 1-1675)”, the binding result in assay [1] and in assay [2] was “binds” each time.

Source of the values: publication doi:10.1101/830802.
